How the values were obtained:
[1] = solid-phase peptide synthesis; details: whole synthesis, of overall theoretical yield
[2] = general procedure: Fmoc solid-phase peptide synthesis; HMP; HBTU/HOBt; details: whole synthesis, of theoretical
[3] = general procedure: Fmoc solid-phase peptide synthesis; SASRIN; HBTU/HOBt; details: whole synthesis, of theoretical
[4] = general procedure: Fmoc solid-phase peptide synthesis; allyl linker; HBTU/HOBt; details: whole synthesis, of theoretical

For “(Gly-Pro-Hyp)8 -Gly-Glu-Phe-Tyr-Phe-Asp-Leu-Arg-Leu-Lys-Gly-Asp-Lys”, the isolated yield [1] was 32.9%.

Work on (Gly-Pro-Hyp)8 yielded an isolated yield [2] of 13.5%.

Substance “(Gly-Pro-Hyp)3 -Gly-Val-Lys-Gly-Asp-Lys-Gly-Asn-Pro-Gly-Trp-Pro-Gly-Ala-Pro” has an isolated yield [3] of 13.6%.

“(Gly-Pro-Hyp)8 -Gly-Val-Lys-Gly-Asp-Lys-Gly-Asn-Pro-Gly-Trp-Pro-Gly-Ala-Pro” showed an isolated yield [4] of 4.7%.

Source: patent US5576419A (Regents of the University of Minnesota, priority 1995, dated 1996)
